According to PubChem BioAssay AID248 (DTP/NCI, 2004):
The list shows only some results of the screen, not a fair sample: it gathers tests that were run many times, whatever their T/C, doses with no T/C, and many T/C values between a quarter and a half above the control. Other doses and runs of a compound stand elsewhere. T/C is the treated group as % of the vehicle group. Some doses have a count of surviving animals in place of a T/C: the source holds a T/C of zero for them, seemingly a mark for toxic or unscored doses. Some survivor counts are full or nearly so, which does not show that the dose was tolerated: survival well below the control is almost never listed, so the zero probably covers shortened survival too. Counts of survivors are from the toxicity check (mostly the fifth day) where no day follows; animals may have died later. Schedule codes are those of the source, taken here to give the interval after Q, in days (D) or hours (H), and the number of doses after X. Some schedule codes hold Z or #, which are not explained here. For survival time, the PubChem record calls one and a half times the control and up active, and a quarter to a half above the control has no call in these data; cut-offs in other NCI protocols can differ.

Test system: L1210 leukemia ip in BDF1 mice, survival T/C
Assay: NCI In Vivo Anticancer Drug Screen. Data for tumor model L1210 Leukemia (intraperitoneal) in B6D2F1 (BDF1) mice
Conditions: T/C endpoint: mean survival time, higher T/C = longer survival
[1] = dose: 400.0 mg/kg/injection, schedule: Q01DX001 (ip), vehicle: other
[2] = dose: 200.0 mg/kg/injection, schedule: Q01DX009 (ip), vehicle: saline with Tween-80
[3] = dose: 200.0 mg/kg/injection, schedule: Q01DX009 (ip), vehicle: Klucel (hydroxypropylcellulose) (HPC)
[4] = dose: 400.0 mg/kg/injection, schedule: Q04DX003 (ip), vehicle: saline with Tween-80
[5] = dose: 400.0 mg/kg/injection, schedule: Q01DX009 (ip), vehicle: Klucel (hydroxypropylcellulose) (HPC)
[6] = dose: 200.0 mg/kg/injection, schedule: Q04DX002 (ip), vehicle: Klucel (hydroxypropylcellulose) (HPC)
[7] = dose: 50.0 mg/kg/injection, schedule: Q01DX001 (ip), vehicle: carboxymethylcellulose (CMC)
[8] = dose: 50.0 mg/kg/injection, schedule: Q01DX009 (ip), vehicle: saline with Tween-80
[9] = dose: 100.0 mg/kg/injection, schedule: Q01DX001 (ip), vehicle: other
[10] = dose: 200.0 mg/kg/injection, schedule: Q01DX001 (ip), vehicle: other

S=C(Nc1ccccc1)N(C1CCCCC1)C1CCCCC1
T/C (dose: 177.0 mg/kg/injection, schedule: Q01DX009 (ip), vehicle: saline with Tween-80): 125 % of control
T/C (dose: 266.0 mg/kg/injection, schedule: Q01DX009 (ip), vehicle: saline with Tween-80): 127 % of control
survivor count (dose: 600.0 mg/kg/injection, schedule: Q01DX009 (ip), vehicle: saline with Tween-80): 1 of 6

COc1ccc(/C=N\NC(=O)CCCC(=O)N/N=C/c2ccc(OC)cc2)cc1
survivor count [1]: 4 of 4

c1ccc(N2CN(c3ccccc3)N(c3ccccc3)CN2c2ccccc2)cc1
survivor count [1]: 6 of 6

Nc1cc(Cl)ccc1NCCO
survivor count (dose: 132.0 mg/kg/injection, schedule: Q01DX009 (ip), vehicle: saline): 6 of 6
survivor count (dose: 200.0 mg/kg/injection, schedule: Q04DX003 (ip), vehicle: acetone): 6 of 6
survivor count (dose: 300.0 mg/kg/injection, schedule: Q04DX003 (ip), vehicle: acetone): 0 of 6

O=C1C=CC(=O)C2C3CC(C4OC34)C12 (stereo not given)
survivor count [2]: 6 of 6
survivor count (dose: 400.0 mg/kg/injection, schedule: Q01DX009 (ip), vehicle: saline with Tween-80): 6 of 6

Cc1ccc(C)c(NC(=O)Oc2ccc3ccccc3c2)c1
survivor count [3]: 6 of 6

C/C(=C\Cl)CN(C)C
survivor count [4]: 0 of 6

C[n+]1ccc(NC(=O)c2ccc(NC(=O)c3cccc(C(=O)Nc4ccc(C(=O)Nc5cc[n+](C)cc5)cc4)c3)cc2)cc1
T/C (dose: 10.0 mg/kg/injection, schedule: Q01DX Z (ip), vehicle: carboxymethylcellulose (CMC)): 144 % of control
survivor count (dose: 320.0 mg/kg/injection, schedule: Q01DX Z (ip), vehicle: carboxymethylcellulose (CMC)): 5 of 6

CC(=O)NS(=O)(=O)c1ccc(NC(=O)c2ccccc2C(=O)O)cc1
survivor count [4]: 6 of 6

Cc1cc(NCCN(C(C)C)C(C)C)nc(/N=C(\N)Nc2ccc(Cl)c(Cl)c2)n1
survivor count (dose: 37.5 mg/kg/injection, schedule: Q01DX001 (ip), vehicle: Klucel (hydroxypropylcellulose) (HPC)): 3 of 6
survivor count (dose: 75.0 mg/kg/injection, schedule: Q01DX001 (ip), vehicle: Klucel (hydroxypropylcellulose) (HPC)): 0 of 6
survivor count (dose: 150.0 mg/kg/injection, schedule: Q01DX001 (ip), vehicle: Klucel (hydroxypropylcellulose) (HPC)): 0 of 6
survivor count (dose: 300.0 mg/kg/injection, schedule: Q01DX001 (ip), vehicle: other): 0 of 6

COc1ccc(CC(N)C(=O)O)cc1 (stereo not given)
survivor count [5]: 3 of 6

NC(CSS(=O)(=O)O)=NCCc1ccccn1
survivor count (dose: 100.0 mg/kg/injection, schedule: Q04DX002 (ip), vehicle: Klucel (hydroxypropylcellulose) (HPC)): 3 of 3
survivor count [6]: 3 of 3

COc1cc2c(cc1OC)C(C)=NCC2
survivor count (dose: 100.0 mg/kg/injection, schedule: Q01DX009 (ip), vehicle: saline): 2 of 6
survivor count (dose: 200.0 mg/kg/injection, schedule: Q01DX001 (ip), vehicle: saline): 0 of 6

Cc1ccc(Nc2c3ccccc3nc3ccccc23)cc1C
survivor count [3]: 3 of 6
survivor count [6]: 1 of 3
survivor count [5]: 0 of 6
survivor count (dose: 400.0 mg/kg/injection, schedule: Q04DX002 (ip), vehicle: Klucel (hydroxypropylcellulose) (HPC)): 0 of 3

Cc1cc(OC(=O)Nc2cccc(Cl)c2)ccc1[N+](=O)[O-]
survivor count [5]: 2 of 6

COC(=O)[C@H]1[C@H]2C[C@@H]3c4[nH]c5cc(OC)ccc5c4CCN3C[C@H]2C[C@@H](OC(=O)c2cc(OC)c(OC)c(OC)c2)[C@@H]1OC
survivor count (dose: 10.5 mg/kg/injection, schedule: Q01DX009 (ip), vehicle: other): 4 of 6
survivor count (dose: 12.5 mg/kg/injection, schedule: Q01DX009 (ip), vehicle: saline with Tween-80): 6 of 6
survivor count (dose: 21.0 mg/kg/injection, schedule: Q01DX009 (ip), vehicle: other): 5 of 6
survivor count (dose: 25.0 mg/kg/injection, schedule: Q01DX001 (ip), vehicle: carboxymethylcellulose (CMC)): 6 of 6
survivor count (dose: 25.0 mg/kg/injection, schedule: Q01DX009 (ip), vehicle: saline with Tween-80): 6 of 6
survivor count (dose: 29.0 mg/kg/injection, schedule: Q04DX003 (ip), vehicle: carboxymethylcellulose (CMC)): 6 of 6
survivor count (dose: 45.0 mg/kg/injection, schedule: Q04DX003 (ip), vehicle: carboxymethylcellulose (CMC)): 5 of 6
survivor count [7]: 6 of 6
survivor count [8]: 6 of 6
survivor count (dose: 50.0 mg/kg/injection, schedule: Q04DX003 (ip), vehicle: saline): 4 of 4
survivor count (dose: 65.0 mg/kg/injection, schedule: Q04DX003 (ip), vehicle: carboxymethylcellulose (CMC)): 4 of 6
survivor count [9]: 1 of 4
survivor count (dose: 100.0 mg/kg/injection, schedule: Q04DX003 (ip), vehicle: saline): 3 of 4
survivor count [10]: 2 of 4
survivor count [1]: 0 of 4

O=C1C(SCCO)=C(SCCO)C(=O)c2[nH]cnc21
survivor count [7]: 0 of 4
survivor count (dose: 80.0 mg/kg/injection, schedule: Q01DX001 (ip), vehicle: carboxymethylcellulose (CMC)): 2 of 4
survivor count (dose: 100.0 mg/kg/injection, schedule: Q01DX001 (ip), vehicle: carboxymethylcellulose (CMC)): 0 of 4
survivor count (dose: 200.0 mg/kg/injection, schedule: Q01DX001 (ip), vehicle: carboxymethylcellulose (CMC)): 0 of 4
survivor count (dose: 400.0 mg/kg/injection, schedule: Q01DX001 (ip), vehicle: carboxymethylcellulose (CMC)): 0 of 4

N#COc1cccc(OCCOc2cccc(OC#N)c2)c1
survivor count (dose: 400.0 mg/kg/injection, schedule: Q01DX001 (ip), vehicle: saline with Tween-80): 5 of 6

Cc1cc(C)c2ccc(Cl)nc2n1
survivor count (dose: 100.0 mg/kg/injection, schedule: Q01DX009 (ip), vehicle: Klucel (hydroxypropylcellulose) (HPC)): 3 of 6

CSC(=N)c1cccc(OCc2ccccc2)c1
survivor count [5]: 0 of 6

Cn1/c(=N/N=C(N)N)ccc2ccccc21
survivor count (dose: 420.0 mg/kg/injection, schedule: Q01DX Z (ip), vehicle: methylcellulose (MC)): 3 of 6
survivor count (dose: 500.0 mg/kg/injection, schedule: Q01DX Z (oral), vehicle: methylcellulose (MC)): 5 of 7
survivor count (dose: 600.0 mg/kg/injection, schedule: Q01DX Z (ip), vehicle: methylcellulose (MC)): 0 of 6
survivor count (dose: 625.0 mg/kg/injection, schedule: Q01DX Z (oral), vehicle: methylcellulose (MC)): 3 of 7

COc1ccc2nccc(/C=C/CC3CCN(C(C)=O)CC3)c2c1
survivor count (dose: 200.0 mg/kg/injection, schedule: Q04DX003 (ip), vehicle: saline): 3 of 6
survivor count (dose: 400.0 mg/kg/injection, schedule: Q04DX003 (ip), vehicle: saline): 1 of 6

O=C(OCC1CC=CC1)C1CC=CC1
survivor count [8]: 6 of 6
survivor count (dose: 100.0 mg/kg/injection, schedule: Q01DX009 (ip), vehicle: saline with Tween-80): 5 of 6
survivor count [2]: 1 of 6
survivor count (dose: 400.0 mg/kg/injection, schedule: Q04DX003 (ip), vehicle: saline sonified): 0 of 6

Nc1nc(N)c2cc(N(CCO)CCO)ccc2n1
survivor count (dose: 400.0 mg/kg/injection, schedule: Q01DX001 (ip), vehicle: saline): 2 of 4

O=c1ccc2ccccc2n1Cc1ccc2ccccc2n1
survivor count [9]: 6 of 6
survivor count [10]: 6 of 6
survivor count [1]: 0 of 6

NC(CCl)=NCc1cccnc1
survivor count (dose: 50.0 mg/kg/injection, schedule: Q04DX002 (ip), vehicle: saline): 1 of 3
survivor count (dose: 100.0 mg/kg/injection, schedule: Q04DX002 (ip), vehicle: saline): 0 of 3
survivor count (dose: 200.0 mg/kg/injection, schedule: Q04DX002 (ip), vehicle: saline): 0 of 3
survivor count (dose: 400.0 mg/kg/injection, schedule: Q04DX002 (ip), vehicle: saline): 0 of 3
